## Assay results

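Luminescence from an EWS-FLI1 target-promoter (NR0B1) reporter, set against a CMV-promoter reporter, two days after silencing single genes in TC32 Ewing sarcoma cells. Each siRNA was applied at 20 nM. A z-score of the log NR0B1-over-CMV signal, less the median of siRNAs with the same seed; more negative means a stronger specific loss of the NR0B1 reporter.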

This is part of the screen; most of the strongest results are not listed here. Sequences are the guide (antisense) strand, without overhang.

{"sequence": "UAUACGACAAAUCAAAUGG", "target gene": "FRK", "seed-corrected z-score": "-0.2616"}
{"sequence": "UCUUUUCUCUUGAAUAGUU", "target gene": "LOC727919", "seed-corrected z-score": "1.462"}
{"sequence": "UGUAUGAACCUGGUAACCC", "target gene": "MDFI", "seed-corrected z-score": "0.2753"}
{"sequence": "UUUGUAAAGAGCAUCUUGG", "target gene": "GLRX2", "seed-corrected z-score": "0.4749"}
{"sequence": "UCUCUUACAACUUCUUGAC", "target gene": "PPIG", "seed-corrected z-score": "-0.4976"}
{"sequence": "AAGGUGCUGAGUGAAGUCA", "target gene": "TNFAIP8L2", "seed-corrected z-score": "-1.174"}
{"sequence": "AAUUCGAUAAUCAAAUGUG", "target gene": "PGBD3", "seed-corrected z-score": "-0.5212"}
{"sequence": "UAAGUUUGAGCCGAGCUGC", "target gene": "NOTO", "seed-corrected z-score": "0.3124"}
{"sequence": "AAAGUUCCCAAUGAAGGCC", "target gene": "FMNL2", "seed-corrected z-score": "-0.2852"}
{"sequence": "UUAACUCAUUCAGUGUUCG", "target gene": "TTC17", "seed-corrected z-score": "0.6716"}
{"sequence": "UAUCAUUUGAUGACAAUUC", "target gene": "ARL14EP", "seed-corrected z-score": "-0.05251"}
{"sequence": "AAUGUACUGAGAUAAAAUC", "target gene": "UCK2", "seed-corrected z-score": "-0.6187"}
{"sequence": "UGCUAUACCACUGUUCACC", "target gene": "HDAC10", "seed-corrected z-score": "1.143"}
{"sequence": "UGUAUUAUCUCUAUUGGUG", "target gene": "OTUD6B", "seed-corrected z-score": "0.03591"}
{"sequence": "UACUUGGCACCGCUGCUUG", "target gene": "JPH2", "seed-corrected z-score": "0.4256"}
{"sequence": "AAGGUUUUCCGCAUGCUGG", "target gene": "MYO18A", "seed-corrected z-score": "-0.4731"}
{"sequence": "UCCCUUGUUAGCAUCUCCC", "target gene": "ZAK", "seed-corrected z-score": "-1.398"}
{"sequence": "UCCUUGGACACGUCCUUCU", "target gene": "FOXC2", "seed-corrected z-score": "-0.3058"}
{"sequence": "UCUGCGUUCAUAUUCCUUG", "target gene": "TSPYL4", "seed-corrected z-score": "0.4538"}
{"sequence": "UUUGAUAGUAGGUCUGUGG", "target gene": "KIAA1328", "seed-corrected z-score": "-1.343"}
{"sequence": "AAAGCUAGAAGUAAGCCUG", "target gene": "CRB1", "seed-corrected z-score": "0.08239"}
{"sequence": "UUCGUGAUUAUUGGGACUG", "target gene": "ARPC1A", "seed-corrected z-score": "-0.003605"}
{"sequence": "UCAUAGUCCACAUACUGCG", "target gene": "NID2", "seed-corrected z-score": "-0.06913"}
{"sequence": "UUCCCGACUAAGAUAACUC", "target gene": "MAP4K5", "seed-corrected z-score": "-0.4569"}
{"sequence": "UCUUCGAGAAGUAUCAUGG", "target gene": "LAYN", "seed-corrected z-score": "-0.05102"}
{"sequence": "UCCUUUAUGAACAGGACCC", "target gene": "KCTD10", "seed-corrected z-score": "0.09543"}
{"sequence": "AUACAUUCCAGUCACACAG", "target gene": "TCAF2", "seed-corrected z-score": "-0.4537"}
{"sequence": "UUGGGCUCAAGGAUCACGU", "target gene": "SUN5", "seed-corrected z-score": "0.9156"}
{"sequence": "UUGACUUCCACGUAAAGCC", "target gene": "HKR1", "seed-corrected z-score": "-0.1112"}
{"sequence": "UUUCUUCUUAGACACGCAG", "target gene": "PGP", "seed-corrected z-score": "-0.08754"}
{"sequence": "UCUUAUAGUAUAUAUCAGG", "target gene": "C11orf65", "seed-corrected z-score": "0.5639"}
{"sequence": "UUAUCUUCCUGGACGAAGC", "target gene": "GPR158", "seed-corrected z-score": "0.7611"}
{"sequence": "UACGUUUCUGUAACCACGG", "target gene": "ABHD3", "seed-corrected z-score": "1.087"}
{"sequence": "UUAUCUUGUCCUUAUAGGC", "target gene": "CD200", "seed-corrected z-score": "-1.874"}
{"sequence": "UAAUGAGUCAGUCGUAGAG", "target gene": "DCAF10", "seed-corrected z-score": "-1.154"}
{"sequence": "UUGAGUUGGAAUGACCGCG", "target gene": "ZNRF4", "seed-corrected z-score": "0.6342"}
{"sequence": "UAGACGAACACGUUGCACU", "target gene": "PPP2R2D", "seed-corrected z-score": "-0.05724"}
{"sequence": "UUCGUUAUGAGUCUUAAAG", "target gene": "GTF2E2", "seed-corrected z-score": "-1.287"}
{"sequence": "UCCACAUGAACUCAUAGUC", "target gene": "CKB", "seed-corrected z-score": "0.6132"}
{"sequence": "UAACAAGCUACAAUCAGCC", "target gene": "CLIC2", "seed-corrected z-score": "0.2402"}
{"sequence": "UAUAUCCUGAAGUAAAGCC", "target gene": "GBP2", "seed-corrected z-score": "-0.2501"}
{"sequence": "UCUUCUUCCGGAUCUGUUC", "target gene": "NR1H2", "seed-corrected z-score": "0.03523"}
{"sequence": "UUUCCAUCCAUGGAUUGUU", "target gene": "BTF3P16", "seed-corrected z-score": "0.8692"}
{"sequence": "UGAGAUUUGUAGGCAGAGC", "target gene": "KRTAP5-8", "seed-corrected z-score": "-0.07877"}
{"sequence": "AUGGUGUCAACAAUAAUAC", "target gene": "XKRY", "seed-corrected z-score": "-0.1144"}
{"sequence": "UCUGUAACUAUGUUGCUCG", "target gene": "GTSF1", "seed-corrected z-score": "-0.2858"}
{"sequence": "AUAGCACUCACAAAAGGGC", "target gene": "ZBED2", "seed-corrected z-score": "1.135"}
{"sequence": "UAAUCAGCAAGCACAAACC", "target gene": "PLEKHA7", "seed-corrected z-score": "1.115"}
{"sequence": "UUUGGGUUAACACUUCGGA", "target gene": "TSPAN13", "seed-corrected z-score": "1.669"}

Source: PubChem BioAssay AID1159506 (NCATS, 2015).